Laboratory results taken from patent US11185539B2 (priority 2017, dated 2021).
At least one compound was matched to its structure with a doubt left.

Legend:
[1] = system: miR-671-5p; experiment: miR-671-5p expression in HCFs, qRT-PCR; format: cell-based, human; details: Lycorine 5 μM, others 1 μM, 24 h, vs DMSO
[2] = system: primary human cardiac fibroblasts (HCFs); experiment: Proliferation of primary human cardiac fibroblasts, BrdU-ELISA; format: cell-based; details: 24 h
Procedure: HCFs were incubated with 0.1 μM, 1 μM and 10 μM Bufalin, Gitoxigenin, Anisomycin and Geldanamycin as well as with 1 μM, 5 μM and 10 μM Lycorine for 24 h and proliferation of HCFs was measured by BrdU-ELISA (see FIG. 1). Due to major drawbacks as a drug candidate, Geldanamycin was not included in the follow-up studies, in particular in the in vivo experiments.
HCFs and HL-1 cells were treated with Bufalin, Gitoxigenin, Lycorine and Anisomycin for 24 h with the same concentrations as indicated in Example 1 and proliferation of HCFs and cardiomyocyte cell line HL-1 cells was measured by BrdU-ELISA, DMSO refers as a control (see FIG. 2B, 3B, 4B, 5B). The cell proliferation ELISA is a colorimetric alternative to quantitate cell proliferation based on the measurement of BrdU incorporation during DNA synthesis in proliferating cells. After its incorporation into DNA, BrdU is detected by immunoassay by using antibodies being highly specific for BrdU. […] Samples are now ready for acquisition on a flow cytometer (blue and red laser).
The cells were incubated for 24 h with 10 μM Bufalin and Lycorine and with 10 μM derivatives of Bufalin (derivatives 3, 5, 6, 7, 8, 9, 10, 11, 12, 13, 14, 16, 17, 18 and 25) and Lycorine (derivative 1, 2, 4, 15, 19, 20, 21, 22, 23, 24 and 26). Then, proliferation of HCFs was measured by BrdU-ELISA (see FIG. 31).

[3] = system: circular RNA CDR1as; experiment: CDR1as expression in HCFs, qRT-PCR; format: cell-based, human; details: Lycorine 5 μM, others 1 μM, 24 h, vs DMSO
Procedure: Expression levels of CDR1as are increased in primary HCFs upon treatment with Bufalin, Gitoxigenin, Lycorine, Anisomycin and Geldanamycin. HCFs were incubated for 24 h with Bufalin (1 μM), Gitoxigenin (1 μM,) Lycorine (5 μM), Anisomycin (1 μM) and Geldanamycin (1 μM) and upregulation of CDR1as (normalized to 18S rRNA) by the respective compound was validated via qRT-PCR (see FIG. 22).

SMILES | expression levels of miR-671-5p (normalized to RNU48) [1] | proliferation of primary HCFs ([2]; 0.1, 1, 10 μM (Lycorine 1, 5, 10 μM), DMSO control) | expression levels of CDR1as (normalized to 18S rRNA) [3] | proliferation of HCFs (derivative screen) ([2]; 10 μM, DMSO solvent control)
COC1=C2C[C@@H](C)C[C@H](OC)[C@H](O)[C@@H](C)/C=C(\C)[C@H](OC(N)=O)[C@@H](OC)/C=C\C=C(/C)C(=O)NC(=CC1=O)C2=O [Geldanamycin] | decreased | Dose-dependent inhibitory effects | increase | –
COC(=O)C[C@](O)(CCCC(C)(C)O)C(=O)O[C@@H]1C(OC)=C[C@]23CCCN2CCc2cc4c(cc2[C@H]13)OCO4 [Homoharringtonine] | – | – | – | prevents the proliferation of HCF best
